No constants are given. Whether binding was seen depends on the method and setting. Some entries that bind do so weakly or less than the wild type. Where a sequence is shown, tags or fusion partners need not be part of it.

Amino acid sequences for entries named in this document (tags omitted). Residues count along the entry.
UniProt O35235, residues 138-316: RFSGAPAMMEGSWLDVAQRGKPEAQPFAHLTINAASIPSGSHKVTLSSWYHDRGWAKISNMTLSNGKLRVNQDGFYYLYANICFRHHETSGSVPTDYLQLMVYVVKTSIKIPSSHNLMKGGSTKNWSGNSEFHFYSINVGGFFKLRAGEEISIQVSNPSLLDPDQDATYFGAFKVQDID

The target of the test is mouse RANKL protein (mouse) (UniProt O35235). Briefly: ELISA, mouse RANKL coated at 10 µg/ml, anti-hFc-HRP detection. (An ELISA detects its analyte on a solid surface through an enzyme-linked reagent.)

B1: recombinant mouse RANK-hFc fusion protein (Fc fusion, UniProt O35305 31-214, looked up, not shown: a dimerising Fc or GST)
chain: VTPPCTQERHYEHLGRCCSRCEPGKYLSSKCTPTSDSVCLPCGPDEYLDTWNEEDKCLLHKVCDAGKALVAVDPGNHTAPRRCACTAGYHWNSDCECCRRNTECAPGFGAQHPLQLNKDTVCTPCLLGFFSDVFSSTDKCKPWTNCTLLGKLEAHQGTTESDVVCSSSMTLRRPPKEAQAYLPS
Regarding B1, the binding result is listed as “binds”.

Values taken from patent publication US20080019991A1 (CYTOS BIOTECHNOLOGY, published 2008).
